Measured data: PubChem BioAssay AID1259254 (NCATS, 2017)

Assay: 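Finding genes that stop cells copying their DNA twice in one cycle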 (primary screen)
Cells: human HCT116 colorectal cancer cells
Knock-down reagent: single siRNA against human genes
Duration: 3 days
Detection: 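Nuclei stained with Hoechst and imaged; cell-cycle phase assigned by DNA content; G2 share scaled per plate, non-targeting siRNA 0%, GMNN siRNA 100%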
Reading the numbers: G2 robust z-score: higher = more G2 cells, more excess DNA replication
Hit rule: 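An siRNA counts as active if its G2 robust z-score lies at least 5 MADs above the screen median; here such calls match roughly 38% of GMNN control or more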
In all, the deposit lists about 59,000 reagents; shown is a part drawn at random. About 1,550 of all reagents (2.6%) count as active. 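G2 share is only a proxy for re-replication; each gene was hit by three separate siRNAs, and active genes were retested.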 A number with no mark means an inactive call. Reagents against one gene are numbered here. Not all columns of the deposit are shown. Not given: the amount of reagent.

With WDR82P1 #1, how do the results read?
G2 robust z-score: -0.394

What is on record for WDR82P1 #2?
G2 robust z-score: -0.827

With WDR82P1 #3, what does the deposit list?
G2 robust z-score: -0.921

Which result is listed for SQLE #1?
G2 robust z-score: -0.427

What did the screen give for SQLE #2?
G2 robust z-score: -0.716

Which result is listed for SQLE #3?
G2 robust z-score: 1.11

How did the screen score TMTC1 #1?
G2 robust z-score: -0.217

How did the screen score TMTC1 #2?
G2 robust z-score: -0.976

For TMTC1 #3, what does the deposit list?
G2 robust z-score: 0.854

With MPLKIP #1, how do the results read?
G2 robust z-score: -0.194

For MPLKIP #2, what does the deposit list?
G2 robust z-score: -0.0815

How did the screen score MPLKIP #3?
G2 robust z-score: 0.853

What is on record for IGDCC4 #1?
G2 robust z-score: 1.79

How did the screen score IGDCC4 #2?
G2 robust z-score: 1.1

For IGDCC4 #3, what does the deposit list?
G2 robust z-score: 1.71

What is on record for UBA6 #1?
G2 robust z-score: -0.795

Which result is listed for UBA6 #2?
G2 robust z-score: -0.0866

What did the screen give for UBA6 #3?
G2 robust z-score: -0.85

For ARHGEF10L #1, how do the results read?
G2 robust z-score: -0.827

For ARHGEF10L #2, what does the deposit list?
G2 robust z-score: 0.791

With ARHGEF10L #3, what does the deposit list?
G2 robust z-score: -0.353

With LY6S-AS1 #1, how do the results read?
G2 robust z-score: -0.385

For LY6S-AS1 #2, what was measured?
G2 robust z-score: 0.139

How did the screen score LY6S-AS1 #3?
G2 robust z-score: -0.652

Copied from above, 2 entries:
UBA6 #1: G2 robust z-score = -0.795
UBA6 #2: G2 robust z-score = -0.0866
